# Laboratory results: PubChem BioAssay AID1224830 (NIAID, 2016)
# Assay: 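Regulators of TLR4 signalling towards TNF-alpha in macrophage-like cells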 (primary screen)
# System: human THP-1 monocytic leukaemia cells, TNF dual-luciferase reporter clone, PMA-differentiated to macrophage-like cells
# Knock-down reagent: siRNA pool against human genes, 50 nM
# Timing: LPS for 4 h, given about 3 days after siRNA transfection
# Conditions: bacterial LPS (TLR4 ligand), 10 ng/ml
# Read-out: 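Ratio of firefly to renilla light, scaled to the plate median and expressed as a robust z-score per replicate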
# Reading the numbers: TNF reporter robust z-score: higher = stronger TNF reporter response to LPS
# Call rule: 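Each well counts as active if its z-score is over 2.8 or under -1.5; controls are left without a call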
# This is one part, drawn at random, of about 18,000 reagents. Over the whole deposit, about 2,900 (16%) were called active. 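Calls are made per well; low scores hint the gene aids the LPS response, high scores that it dampens it.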 Repeated entries: four replicate wells of each siRNA pool. No sequences are given here.
target gene,TNF reporter robust z-score,Call
DDX47 (GeneID 51202),1.13,inactive
DDX47 (GeneID 51202),2.45,inactive
DDX47 (GeneID 51202),2.09,inactive
DDX47 (GeneID 51202),1.93,inactive
FSD1 (GeneID 79187),0.81,inactive
FSD1 (GeneID 79187),2.43,inactive
FSD1 (GeneID 79187),2.68,inactive
FSD1 (GeneID 79187),3.54,active
IPO11 (GeneID 51194),-0.79,inactive
IPO11 (GeneID 51194),-0.41,inactive
IPO11 (GeneID 51194),0.43,inactive
IPO11 (GeneID 51194),1.05,inactive
MAP1B (GeneID 4131),0.02,inactive
MAP1B (GeneID 4131),-0.31,inactive
MAP1B (GeneID 4131),-1.25,inactive
MAP1B (GeneID 4131),-0.34,inactive
HCST (GeneID 10870),-0.95,inactive
HCST (GeneID 10870),0.81,inactive
HCST (GeneID 10870),0.27,inactive
HCST (GeneID 10870),-0.24,inactive
AHSG (GeneID 197),0.04,inactive
AHSG (GeneID 197),0.84,inactive
AHSG (GeneID 197),0.14,inactive
AHSG (GeneID 197),2.15,inactive
PI16 (GeneID 221476),-0.65,inactive
PI16 (GeneID 221476),-0.95,inactive
PI16 (GeneID 221476),-1.47,inactive
PI16 (GeneID 221476),0.21,inactive

Laid out differently: results already given.
{"target gene":"IPO11 (GeneID 51194)","TNF reporter robust z-score":0.43,"Call":"inactive"}
{"target gene":"IPO11 (GeneID 51194)","TNF reporter robust z-score":1.05,"Call":"inactive"}
{"target gene":"MAP1B (GeneID 4131)","TNF reporter robust z-score":0.02,"Call":"inactive"}
{"target gene":"MAP1B (GeneID 4131)","TNF reporter robust z-score":-0.31,"Call":"inactive"}
{"target gene":"MAP1B (GeneID 4131)","TNF reporter robust z-score":-1.25,"Call":"inactive"}
{"target gene":"MAP1B (GeneID 4131)","TNF reporter robust z-score":-0.34,"Call":"inactive"}
{"target gene":"HCST (GeneID 10870)","TNF reporter robust z-score":-0.95,"Call":"inactive"}
{"target gene":"HCST (GeneID 10870)","TNF reporter robust z-score":0.81,"Call":"inactive"}
{"target gene":"HCST (GeneID 10870)","TNF reporter robust z-score":0.27,"Call":"inactive"}
{"target gene":"HCST (GeneID 10870)","TNF reporter robust z-score":-0.24,"Call":"inactive"}
{"target gene":"AHSG (GeneID 197)","TNF reporter robust z-score":0.04,"Call":"inactive"}
{"target gene":"AHSG (GeneID 197)","TNF reporter robust z-score":0.84,"Call":"inactive"}

The list goes on:
target gene,TNF reporter robust z-score,Call
SDHAF4 (GeneID 135154),0.53,inactive
SDHAF4 (GeneID 135154),-0.59,inactive
SDHAF4 (GeneID 135154),-0.77,inactive
SDHAF4 (GeneID 135154),-1.02,inactive
PARP3 (GeneID 10039),-0.87,inactive
PARP3 (GeneID 10039),0.79,inactive
PARP3 (GeneID 10039),-0.38,inactive
NUP58 (GeneID 9818),0.44,inactive
NUP58 (GeneID 9818),0.56,inactive
NUP58 (GeneID 9818),0.06,inactive
NUP58 (GeneID 9818),0.16,inactive
BET1L (GeneID 51272),-1.84,active
BET1L (GeneID 51272),-0.89,inactive
BET1L (GeneID 51272),-0.58,inactive
BET1L (GeneID 51272),-0.67,inactive
COL18A1-AS1 (GeneID 378832),-0.24,inactive
COL18A1-AS1 (GeneID 378832),0.29,inactive
COL18A1-AS1 (GeneID 378832),1.05,inactive
COL18A1-AS1 (GeneID 378832),0.59,inactive
DNMT3L (GeneID 29947),0.48,inactive
DNMT3L (GeneID 29947),0.34,inactive
DNMT3L (GeneID 29947),0.18,inactive
DNMT3L (GeneID 29947),2.16,inactive
TTYH1 (GeneID 57348),-0.58,inactive
TTYH1 (GeneID 57348),0.4,inactive
TTYH1 (GeneID 57348),2.35,inactive
TTYH1 (GeneID 57348),1.57,inactive
IFNAR2 (GeneID 3455),0.48,inactive
IFNAR2 (GeneID 3455),0.25,inactive
IFNAR2 (GeneID 3455),0.83,inactive
IFNAR2 (GeneID 3455),1.48,inactive
CYP4F2 (GeneID 8529),0.45,inactive
CYP4F2 (GeneID 8529),0.76,inactive
CYP4F2 (GeneID 8529),-0.2,inactive
CYP4F2 (GeneID 8529),1.53,inactive
ZC3H18-DT (GeneID 400555),-0.73,inactive
ZC3H18-DT (GeneID 400555),-0.32,inactive
ZC3H18-DT (GeneID 400555),-1.1,inactive
RHBDL1 (GeneID 9028),-1.38,inactive
RHBDL1 (GeneID 9028),3.71,active
RHBDL1 (GeneID 9028),-0.26,inactive
RHBDL1 (GeneID 9028),-0.03,inactive
PSMC5 (GeneID 5705),-1.03,inactive
PSMC5 (GeneID 5705),-1.04,inactive
PSMC5 (GeneID 5705),-1.16,inactive
PSMC5 (GeneID 5705),-1.09,inactive
MEGF6 (GeneID 1953),-1.5,inactive
MEGF6 (GeneID 1953),-1.71,active
MEGF6 (GeneID 1953),-1.86,active
MEGF6 (GeneID 1953),-1.52,active
